Experiment [1] has as its target PML-IV expressed from pEYFP-N1-PML (UniProt P29590). The experiment in a line: FRET or BRET; CFP/YFP fusions cotransfected in equal amounts into Huh7 cells in 96-well plates, with or without prcccDNA/Cre; 48 h after transfection fluorescence read on a Tecan microplate reader; FRET ratio. For orientation: BRET reads energy transfer from a luciferase to a nearby fluorophore.

Chains of the proteins cited; added tags and fusions are not shown. Lines headed by an entry give the natural chain unless they say otherwise; changes in a name come on top. A line that says so, or that is headed by a name, gives the form on record, which may keep a tag or linker.
UniProt P29590: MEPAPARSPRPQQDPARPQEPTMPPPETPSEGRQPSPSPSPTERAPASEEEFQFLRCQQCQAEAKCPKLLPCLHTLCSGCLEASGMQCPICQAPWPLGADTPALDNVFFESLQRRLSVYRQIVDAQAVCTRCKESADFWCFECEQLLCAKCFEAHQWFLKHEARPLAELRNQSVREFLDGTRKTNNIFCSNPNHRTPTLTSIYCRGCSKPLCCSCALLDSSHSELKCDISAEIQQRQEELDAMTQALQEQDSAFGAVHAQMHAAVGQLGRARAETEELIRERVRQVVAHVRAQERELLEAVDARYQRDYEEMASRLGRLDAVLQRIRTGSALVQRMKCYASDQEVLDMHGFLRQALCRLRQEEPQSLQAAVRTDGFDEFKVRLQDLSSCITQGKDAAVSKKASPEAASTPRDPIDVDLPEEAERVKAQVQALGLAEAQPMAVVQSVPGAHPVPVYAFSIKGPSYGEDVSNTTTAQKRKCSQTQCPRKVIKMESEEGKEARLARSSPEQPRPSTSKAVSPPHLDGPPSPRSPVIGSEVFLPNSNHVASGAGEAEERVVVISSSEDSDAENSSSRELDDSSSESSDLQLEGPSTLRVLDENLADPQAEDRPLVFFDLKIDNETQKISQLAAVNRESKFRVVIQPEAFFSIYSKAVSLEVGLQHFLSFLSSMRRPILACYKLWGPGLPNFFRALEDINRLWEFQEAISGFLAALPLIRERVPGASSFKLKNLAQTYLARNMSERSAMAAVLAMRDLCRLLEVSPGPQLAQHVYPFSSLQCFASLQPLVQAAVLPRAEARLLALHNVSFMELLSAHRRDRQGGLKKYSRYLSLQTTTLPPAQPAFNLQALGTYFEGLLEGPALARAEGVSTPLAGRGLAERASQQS
PML-IV-Flag (P29590, form named): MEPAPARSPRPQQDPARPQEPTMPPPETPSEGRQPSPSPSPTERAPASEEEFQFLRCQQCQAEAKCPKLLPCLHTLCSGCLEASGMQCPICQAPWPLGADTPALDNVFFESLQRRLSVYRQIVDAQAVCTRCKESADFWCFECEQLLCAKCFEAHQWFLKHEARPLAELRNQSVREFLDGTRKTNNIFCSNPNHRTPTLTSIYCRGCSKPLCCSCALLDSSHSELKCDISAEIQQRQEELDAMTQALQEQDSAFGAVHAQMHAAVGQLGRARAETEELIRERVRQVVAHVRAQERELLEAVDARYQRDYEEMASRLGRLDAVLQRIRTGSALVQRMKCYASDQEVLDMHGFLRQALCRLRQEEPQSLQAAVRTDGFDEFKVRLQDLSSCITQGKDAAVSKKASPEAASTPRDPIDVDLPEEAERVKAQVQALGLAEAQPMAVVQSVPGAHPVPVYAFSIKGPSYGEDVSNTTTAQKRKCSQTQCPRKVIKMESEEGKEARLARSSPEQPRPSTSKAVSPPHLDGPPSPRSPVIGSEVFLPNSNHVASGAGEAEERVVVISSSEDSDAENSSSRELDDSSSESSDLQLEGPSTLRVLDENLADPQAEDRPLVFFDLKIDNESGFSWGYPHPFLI

For experiment [2], the target named is PML-IV expressed from pECFP-N1-PML (UniProt P29590). The experiment is described as above.
A further experiment addresses PML-IV-Flag (UniProt P29590). The experiment in a line: co-IP; FoxO4-HA and PML-Flag cotransfected into Huh7 cells with or without rcccDNA; 48 h; lysis in 1% NP-40, 0.5% sodium deoxycholate, 150 mM NaCl, 20 mM Tris-HCl pH 7.4; immunoprecipitation with anti-Flag M2 agarose or control IgG, 4°C overnight; blot with anti-HA.
Experiment [3] has as its target endogenous promyelocytic leukemia protein (PML) (human (endogenous in Huh7)) (UniProt P29590). The experiment in a line: co-IP; endogenous proteins; Huh7 cells transfected with or without prcccDNA/Cre; 48 h; immunoprecipitation with anti-PML or control IgG; blot with anti-FoxO4 or anti-PML.

These are yes or no findings as the source states them, for the method shown. Binding seen in cells or lysates may run through a third protein. Some entries that bind do so weakly or less than the wild type.

“FoxO4 expressed from pECFP-N1-FoxO4 (from UniProt P98177 1-505)”: the binding entry in experiment [1] is listed as “binds”.

For the substance “FoxO4 expressed from pEYFP-N1-FoxO4 (from UniProt P98177 1-505)”, the binding entry in experiment [2] was “binds”.

For FoxO4-HA (from UniProt P98177 1-505), the binding result in the experiment with PML-IV-Flag is reported as “binds”.

Regarding “endogenous FoxO4 (from UniProt P98177 1-505)”, the binding entry in experiment [3] is “binds”.

The record behind these values is article PMC9278149.
